For assay [1], the target named is human μ-opioid receptor fused with the BRET-ID sequence (human) (UniProt P35372). As to the kind of experiment: proximity labelling; BRET-ID: HEK293T expressing hMOR-BRET-ID, 1 min furimazine labelling after DAMGO stimulation for 0, 5 and 30 min; streptavidin enrichment, DIA LC-MS/MS.
Assay [2] concerns the target G3BP1 (Ras GTPase-activating protein-binding protein 1) fused to the BRET-ID tag (UniProt Q13283). Kind of assay: proximity labelling; BRET-ID in vivo: tumor xenografts expressing G3BP1-BRET-ID in nude mice, intratumoral injection of furimazine and alkyne-aniline; FISAP streptavidin enrichment, DIA LC-MS/MS. In general terms: BRET reads energy transfer from a luciferase to a nearby fluorophore.

Protein sequences, listed by entry. Tags and fused reporters are not part of them.
UniProt Q13283: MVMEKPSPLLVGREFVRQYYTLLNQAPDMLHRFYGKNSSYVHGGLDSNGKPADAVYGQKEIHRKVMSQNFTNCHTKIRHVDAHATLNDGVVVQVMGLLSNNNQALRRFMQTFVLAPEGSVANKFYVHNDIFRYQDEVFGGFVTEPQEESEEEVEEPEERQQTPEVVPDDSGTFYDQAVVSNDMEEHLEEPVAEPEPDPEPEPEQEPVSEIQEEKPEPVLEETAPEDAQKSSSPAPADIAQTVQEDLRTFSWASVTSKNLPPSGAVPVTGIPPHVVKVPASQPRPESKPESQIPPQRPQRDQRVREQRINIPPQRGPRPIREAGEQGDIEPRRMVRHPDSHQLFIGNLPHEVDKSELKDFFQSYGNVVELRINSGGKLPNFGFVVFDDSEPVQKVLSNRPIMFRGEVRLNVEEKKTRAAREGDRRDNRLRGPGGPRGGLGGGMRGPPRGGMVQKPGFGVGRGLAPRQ
UniProt P25098: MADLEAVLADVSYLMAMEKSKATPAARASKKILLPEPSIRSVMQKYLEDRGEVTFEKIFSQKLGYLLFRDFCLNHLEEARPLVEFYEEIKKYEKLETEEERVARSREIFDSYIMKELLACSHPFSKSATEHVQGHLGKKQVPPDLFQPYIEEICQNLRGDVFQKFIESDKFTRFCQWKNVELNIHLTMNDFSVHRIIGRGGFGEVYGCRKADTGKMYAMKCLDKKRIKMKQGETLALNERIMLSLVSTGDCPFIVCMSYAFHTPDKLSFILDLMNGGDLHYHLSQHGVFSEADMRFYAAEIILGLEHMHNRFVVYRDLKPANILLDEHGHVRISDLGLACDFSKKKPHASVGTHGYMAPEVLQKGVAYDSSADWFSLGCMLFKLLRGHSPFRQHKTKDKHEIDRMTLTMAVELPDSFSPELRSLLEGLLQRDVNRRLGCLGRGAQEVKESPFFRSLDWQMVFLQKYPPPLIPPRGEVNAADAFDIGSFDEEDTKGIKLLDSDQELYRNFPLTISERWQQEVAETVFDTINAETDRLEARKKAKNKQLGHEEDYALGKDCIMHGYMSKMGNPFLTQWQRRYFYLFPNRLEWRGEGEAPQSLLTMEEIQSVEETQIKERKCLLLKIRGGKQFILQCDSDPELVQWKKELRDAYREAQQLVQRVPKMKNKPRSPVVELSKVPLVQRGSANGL
UniProt Q9UHV7: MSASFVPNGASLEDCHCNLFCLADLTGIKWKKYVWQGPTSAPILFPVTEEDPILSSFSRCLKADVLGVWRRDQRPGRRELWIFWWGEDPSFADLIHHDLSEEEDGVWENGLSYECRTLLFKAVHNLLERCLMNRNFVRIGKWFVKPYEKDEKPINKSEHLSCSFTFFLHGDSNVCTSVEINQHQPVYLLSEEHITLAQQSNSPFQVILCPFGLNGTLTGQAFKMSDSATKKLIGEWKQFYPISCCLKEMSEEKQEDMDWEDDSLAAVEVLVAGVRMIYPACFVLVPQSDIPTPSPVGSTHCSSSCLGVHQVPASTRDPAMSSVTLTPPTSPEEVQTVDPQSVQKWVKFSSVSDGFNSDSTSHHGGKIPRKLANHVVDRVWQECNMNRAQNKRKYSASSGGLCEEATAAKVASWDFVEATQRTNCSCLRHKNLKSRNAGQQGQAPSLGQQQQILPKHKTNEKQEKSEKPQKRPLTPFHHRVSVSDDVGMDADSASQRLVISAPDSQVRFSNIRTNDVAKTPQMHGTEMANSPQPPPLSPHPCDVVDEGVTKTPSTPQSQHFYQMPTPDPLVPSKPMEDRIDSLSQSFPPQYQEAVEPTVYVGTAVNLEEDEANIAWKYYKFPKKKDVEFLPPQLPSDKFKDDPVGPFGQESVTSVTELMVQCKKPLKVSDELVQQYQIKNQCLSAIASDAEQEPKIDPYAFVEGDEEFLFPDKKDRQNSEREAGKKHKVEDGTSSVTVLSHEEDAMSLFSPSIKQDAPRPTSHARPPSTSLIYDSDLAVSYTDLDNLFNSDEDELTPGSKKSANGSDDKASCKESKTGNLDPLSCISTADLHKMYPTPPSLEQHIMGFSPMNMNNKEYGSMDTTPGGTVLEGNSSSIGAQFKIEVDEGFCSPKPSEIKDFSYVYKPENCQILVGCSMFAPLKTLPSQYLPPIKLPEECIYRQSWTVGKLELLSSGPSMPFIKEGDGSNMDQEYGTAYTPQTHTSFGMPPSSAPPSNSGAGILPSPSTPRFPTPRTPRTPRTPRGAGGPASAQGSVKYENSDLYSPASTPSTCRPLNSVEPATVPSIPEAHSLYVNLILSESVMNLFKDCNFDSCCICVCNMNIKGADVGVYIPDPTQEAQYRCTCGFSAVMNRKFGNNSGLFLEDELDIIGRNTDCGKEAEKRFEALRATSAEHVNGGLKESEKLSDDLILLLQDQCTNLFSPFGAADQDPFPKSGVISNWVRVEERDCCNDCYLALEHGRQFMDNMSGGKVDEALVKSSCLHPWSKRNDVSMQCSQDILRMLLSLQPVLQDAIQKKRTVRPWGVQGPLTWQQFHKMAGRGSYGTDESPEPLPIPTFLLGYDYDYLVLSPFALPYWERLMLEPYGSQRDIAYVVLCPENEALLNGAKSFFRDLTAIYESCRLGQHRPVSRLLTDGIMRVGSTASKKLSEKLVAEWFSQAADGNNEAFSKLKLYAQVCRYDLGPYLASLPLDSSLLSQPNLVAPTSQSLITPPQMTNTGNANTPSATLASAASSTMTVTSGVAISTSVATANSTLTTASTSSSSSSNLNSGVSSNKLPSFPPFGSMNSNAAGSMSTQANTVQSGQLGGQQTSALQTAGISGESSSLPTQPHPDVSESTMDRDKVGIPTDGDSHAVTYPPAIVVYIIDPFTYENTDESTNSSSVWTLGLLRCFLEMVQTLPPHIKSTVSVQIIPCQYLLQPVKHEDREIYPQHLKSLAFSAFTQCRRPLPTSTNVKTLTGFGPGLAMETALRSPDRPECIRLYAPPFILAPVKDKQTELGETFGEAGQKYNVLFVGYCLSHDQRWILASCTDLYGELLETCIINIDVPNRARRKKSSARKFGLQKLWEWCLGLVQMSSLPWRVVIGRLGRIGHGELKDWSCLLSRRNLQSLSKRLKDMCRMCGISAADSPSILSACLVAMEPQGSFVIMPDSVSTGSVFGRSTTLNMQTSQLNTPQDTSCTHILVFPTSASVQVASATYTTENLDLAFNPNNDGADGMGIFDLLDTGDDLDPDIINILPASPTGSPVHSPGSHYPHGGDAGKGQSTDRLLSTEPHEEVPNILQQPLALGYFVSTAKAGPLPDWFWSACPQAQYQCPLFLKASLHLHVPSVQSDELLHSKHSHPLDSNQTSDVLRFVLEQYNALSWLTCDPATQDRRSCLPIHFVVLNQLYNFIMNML
UniProt Q9UKI8: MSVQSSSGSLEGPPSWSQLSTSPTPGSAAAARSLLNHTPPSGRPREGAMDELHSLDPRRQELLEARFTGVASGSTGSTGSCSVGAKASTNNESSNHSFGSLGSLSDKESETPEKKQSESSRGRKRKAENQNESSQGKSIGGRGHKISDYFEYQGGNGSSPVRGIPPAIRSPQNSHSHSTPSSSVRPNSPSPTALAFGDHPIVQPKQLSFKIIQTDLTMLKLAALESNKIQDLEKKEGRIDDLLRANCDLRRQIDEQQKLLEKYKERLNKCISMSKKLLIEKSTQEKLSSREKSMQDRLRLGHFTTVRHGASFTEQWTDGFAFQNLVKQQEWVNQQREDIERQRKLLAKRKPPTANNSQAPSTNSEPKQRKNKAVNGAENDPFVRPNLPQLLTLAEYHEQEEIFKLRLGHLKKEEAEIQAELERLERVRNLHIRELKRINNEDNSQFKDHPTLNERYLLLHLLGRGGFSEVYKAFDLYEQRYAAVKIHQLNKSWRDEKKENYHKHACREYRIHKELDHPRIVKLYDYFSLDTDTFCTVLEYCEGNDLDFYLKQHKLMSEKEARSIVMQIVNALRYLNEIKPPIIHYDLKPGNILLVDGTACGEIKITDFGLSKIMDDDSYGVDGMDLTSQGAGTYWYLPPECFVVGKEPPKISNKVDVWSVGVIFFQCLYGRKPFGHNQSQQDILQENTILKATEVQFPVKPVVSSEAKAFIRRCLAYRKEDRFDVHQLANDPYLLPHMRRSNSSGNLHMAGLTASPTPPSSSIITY
UniProt Q14157: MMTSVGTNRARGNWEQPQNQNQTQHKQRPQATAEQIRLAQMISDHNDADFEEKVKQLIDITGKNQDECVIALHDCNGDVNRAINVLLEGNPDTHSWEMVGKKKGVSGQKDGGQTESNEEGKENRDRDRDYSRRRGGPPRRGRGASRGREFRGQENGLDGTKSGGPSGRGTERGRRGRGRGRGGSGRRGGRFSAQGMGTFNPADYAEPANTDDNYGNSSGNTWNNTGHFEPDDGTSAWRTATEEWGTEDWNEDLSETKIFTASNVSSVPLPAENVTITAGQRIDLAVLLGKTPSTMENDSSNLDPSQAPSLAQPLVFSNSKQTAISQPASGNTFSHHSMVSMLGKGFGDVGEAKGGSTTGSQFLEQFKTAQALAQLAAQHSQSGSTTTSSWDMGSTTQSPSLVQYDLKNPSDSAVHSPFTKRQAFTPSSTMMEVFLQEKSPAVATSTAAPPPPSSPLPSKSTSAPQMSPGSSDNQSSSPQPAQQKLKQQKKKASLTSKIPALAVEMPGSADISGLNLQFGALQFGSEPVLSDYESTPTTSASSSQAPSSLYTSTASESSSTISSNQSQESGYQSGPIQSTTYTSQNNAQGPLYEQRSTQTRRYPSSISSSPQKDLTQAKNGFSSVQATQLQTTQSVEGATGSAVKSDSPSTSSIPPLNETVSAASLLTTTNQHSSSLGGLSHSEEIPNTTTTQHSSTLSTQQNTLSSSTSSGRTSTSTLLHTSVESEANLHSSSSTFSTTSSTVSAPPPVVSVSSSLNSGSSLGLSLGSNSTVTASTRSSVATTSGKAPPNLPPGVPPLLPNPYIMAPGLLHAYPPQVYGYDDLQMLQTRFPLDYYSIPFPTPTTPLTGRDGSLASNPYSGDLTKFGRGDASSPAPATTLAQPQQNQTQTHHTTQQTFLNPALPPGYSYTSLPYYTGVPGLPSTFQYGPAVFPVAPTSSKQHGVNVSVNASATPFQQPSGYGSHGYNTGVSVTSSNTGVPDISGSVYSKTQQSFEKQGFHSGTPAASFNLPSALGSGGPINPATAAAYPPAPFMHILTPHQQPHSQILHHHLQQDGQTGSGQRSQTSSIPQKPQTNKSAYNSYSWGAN
UniProt Q9C0D3: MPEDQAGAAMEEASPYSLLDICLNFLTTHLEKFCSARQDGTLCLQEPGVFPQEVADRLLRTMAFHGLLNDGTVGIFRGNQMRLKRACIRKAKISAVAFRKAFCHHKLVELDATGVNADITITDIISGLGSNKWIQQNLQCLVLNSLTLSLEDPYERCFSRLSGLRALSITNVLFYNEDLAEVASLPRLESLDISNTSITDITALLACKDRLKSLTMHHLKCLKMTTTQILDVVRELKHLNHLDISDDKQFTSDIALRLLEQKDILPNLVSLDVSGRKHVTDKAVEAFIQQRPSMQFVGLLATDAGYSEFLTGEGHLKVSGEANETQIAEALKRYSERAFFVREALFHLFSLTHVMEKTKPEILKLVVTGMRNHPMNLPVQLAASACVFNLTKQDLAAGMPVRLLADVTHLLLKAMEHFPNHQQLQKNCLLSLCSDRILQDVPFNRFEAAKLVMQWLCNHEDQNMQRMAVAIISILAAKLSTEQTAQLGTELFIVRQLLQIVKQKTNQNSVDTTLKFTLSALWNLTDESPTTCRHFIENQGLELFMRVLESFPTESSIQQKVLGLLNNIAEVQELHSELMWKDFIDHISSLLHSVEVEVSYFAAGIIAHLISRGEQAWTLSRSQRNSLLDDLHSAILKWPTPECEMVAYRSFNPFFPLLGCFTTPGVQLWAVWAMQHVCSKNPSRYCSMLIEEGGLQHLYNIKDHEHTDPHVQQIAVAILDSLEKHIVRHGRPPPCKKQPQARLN
UniProt P32121: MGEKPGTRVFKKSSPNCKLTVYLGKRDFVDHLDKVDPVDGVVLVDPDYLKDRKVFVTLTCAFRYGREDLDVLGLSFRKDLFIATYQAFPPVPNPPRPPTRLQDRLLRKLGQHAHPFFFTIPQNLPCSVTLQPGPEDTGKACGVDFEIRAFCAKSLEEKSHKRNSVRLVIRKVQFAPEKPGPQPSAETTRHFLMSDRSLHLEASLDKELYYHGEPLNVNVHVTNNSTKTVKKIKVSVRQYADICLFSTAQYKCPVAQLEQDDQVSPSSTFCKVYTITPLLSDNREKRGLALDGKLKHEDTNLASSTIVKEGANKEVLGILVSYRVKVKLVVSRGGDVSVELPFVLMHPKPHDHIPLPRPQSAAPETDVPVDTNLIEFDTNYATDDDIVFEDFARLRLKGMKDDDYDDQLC

For assay [3] the target is unchanged. As to the kind of experiment: proximity labelling; BRET-ID: HEK293T stably expressing G3BP1-BRET-ID, basal or 0.5 mM sodium arsenite for 60 min, 75 μM furimazine for 5 min; enrichment against a control without furimazine, DIA LC-MS/MS.
For assay [4], the target named is human μ-opioid receptor fused with the BRET-ID sequence (human) (UniProt P35372). Kind of assay: proximity labelling; BRET-ID: HEK293T expressing hMOR-BRET-ID, 1 min furimazine labelling after DAMGO stimulation for 0, 5 and 30 min; streptavidin enrichment, DIA LC-MS/MS. This is another data set of the same source.

Like-named read-outs stand apart in the source and are kept apart here. No constants are given. Whether binding was seen depends on the method and setting. Binding seen in cells or lysates may run through a third protein. A yes stands for co-enrichment or nearness to the bait. Other partners may have been found.

As for “GRK2 (from UniProt P25098 1-689) (enzyme)”, the binding entry in assay [1] is “binds”.

With “MED13 (Mediator of RNA polymerase II transcription subunit 13) (from UniProt Q9UHV7 1-2174)”, in assay [2], the binding result is “binds”.

For the molecule PRRC2C (from UniProt Q9Y520 1-2896), the binding entry in assay [3] is recorded as “binds”.

On to “TLK1 (serine/threonine-protein kinase tousled-like 1) (from UniProt Q9UKI8 1-766) (enzyme)”, for which, in assay [3], the binding entry is reported as “binds”.

For UBAP2L (from UniProt Q14157 1-1087), the binding entry in assay [3] is “binds”.

For “ZYG11B (endogenous) (from UniProt Q9C0D3 1-744)”, in assay [1], the binding result is “binds”.

As to “protein kinase C alpha (from UniProt P17252 1-672) (enzyme)”, in assay [1], the binding result is recorded as “binds”.

Regarding “β-arrestin-2 (endogenous) (from UniProt P32121 1-409)”, the binding entry in assay [1] was “binds”.

B1: cyclin G-associated kinase (enzyme, UniProt O14976 1-1311)
chain: MSLLQSALDFLAGPGSLGGASGRDQSDFVGQTVELGELRLRVRRVLAEGGFAFVYEAQDVGSGREYALKRLLSNEEEKNRAIIQEVCFMKKLSGHPNIVQFCSAASIGKEESDTGQAEFLLLTELCKGQLVEFLKKMESRGPLSCDTVLKIFYQTCRAVQHMHRQKPPIIHRDLKVENLLLSNQGTIKLCDFGSATTISHYPDYSWSAQRRALVEEEITRNTTPMYRTPEIIDLYSNFPIGEKQDIWALGCILYLLCFRQHPFEDGAKLRIVNGKYSIPPHDTQYTVFHSLIRAMLQVNPEERLSIAEVVHQLQEIAAARNVNPKSPITELLEQNGGYGSATLSRGPPPPVGPAGSGYSGGLALAEYDQPYGGFLDILRGGTERLFTNLKDTSSKVIQSVANYAKGDLDISYITSRIAVMSFPAEGVESALKNNIEDVRLFLDSKHPGHYAVYNLSPRTYRPSRFHNRVSECGWAARRAPHLHTLYNICRNMHAWLRQDHKNVCVVHCMDGRAASAVAVCSFLCFCRLFSTAEAAVYMFSMKRCPPGIWPSHKRYIEYMCDMVAEEPITPHSKPILVRAVVMTPVPLFSKQRSGCRPFCEVYVGDERVASTSQEYDKMRDFKIEDGKAVIPLGVTVQGDVLIVIYHARSTLGGRLQAKMASMKMFQIQFHTGFVPRNATTVKFAKYDLDACDIQEKYPDLFQVNLEVEVEPRDRPSREAPPWENSSMRGLNPKILFSSREEQQDILSKFGKPELPRQPGSTAQYDAGAGSPEAEPTDSDSPPSSSADASRFLHTLDWQEEKEAETGAENASSKESESALMEDRDESEVSDEGGSPISSEGQEPRADPEPPGLAAGLVQQDLVFEVETPAVLPEPVPQEDGVDLLGLHSEVGAGPAVPPQACKAPSSNTDLLSCLLGPPEAASQGPPEDLLSEDPLLLASPAPPLSVQSTPRGGPPAAADPFGPLLPSSGNNSQPCSNPDLFGEFLNSDSVTVPPSFPSAHSAPPPSCSADFLHLGDLPGEPSKMTASSSNPDLLGGWAAWTETAASAVAPTPATEGPLFSPGGQPAPCGSQASWTKSQNPDPFADLGDLSSGLQGSPAGFPPGGFIPKTATTPKGSSSWQTSRPPAQGASWPPQAKPPPKACTQPRPNYASNFSVIGAREERGVRAPSFAQKPKVSENDFEDLLSNQGFSSRSDKKGPKTIAEMRKQDLAKDTDPLKLKLLDWIEGKERNIRALLSTLHTVLWDGESRWTPVGMADLVAPEQVKKHYRRAVLAVHPDKAAGQPYEQHAKMIFMELNDAWSEFENQGSRPLF
Regarding B1, in assay [4], the binding entry is “binds”.

B2: UBAP2 (protein, UniProt Q5T6F2 1-1119)
chain: MMTSVSSDHCRGAREKPQISAAQSTQPQKQVVQATAEQMRLAQVIFDKNDSDFEAKVKQLMEVTGKNQDECIVALHDCNGDVNKAINILLEGNSDTTSWETVGCKKKNFAKENSENKENREKKSEKESSRGRGNNNRKGRGGNRGREFRGEENGIDCNQVDKPSDRGKRARGRGFGRGRGRGAGRFSTQGMGTFNPADYSDSTSTDVCGTKLVVWEAAQNGADEGTELASNTHNIAQDLSNKSSYGLKGAWKNSVEEWTTEDWTEDLSETKVFTASSAPAENHILPGQSIDLVALLQKPVPHSQASEANSFETSQQQGFGQALVFTNSQHNNQMAPGTGSSTAVNSCSPQSLSSVLGSGFGELAPPKMANITSSQILDQLKAPSLGQFTTTPSTQQNSTSHPTTTTSWDLKPPTSQSSVLSHLDFKSQPEPSPVLSQLSQRQQHQSQAVTVPPPGLESFPSQAKLRESTPGDSPSTVNKLLQLPSTTIENISVSVHQPQPKHIKLAKRRIPPASKIPASAVEMPGSADVTGLNVQFGALEFGSEPSLSEFGSAPSSENSNQIPISLYSKSLSEPLNTSLSMTSAVQNSTYTTSVITSCSLTSSSLNSASPVAMSSSYDQSSVHNRIPYQSPVSSSESAPGTIMNGHGGGRSQQTLDTPKTTGPPSALPSVSSLPSTTSCTALLPSTSQHTGDLTSSPLSQLSSSLSSHQSSLSAHAALSSSTSHTHASVESASSHQSSATFSTAATSVSSSASSGASLSSSMNTANSLCLGGTPASASSSSSRAAPLVTSGKAPPNLPQGVPPLLHNQYLVGPGGLLPAYPIYGYDELQMLQSRLPVDYYGIPFAAPTALASRDGSLANNPYPGDVTKFGRGDSASPAPATTPAQPQQSQSQTHHTAQQPFVNPALPPGYSYTGLPYYTGMPSAFQYGPTMFVPPASAKQHGVNLSTPTPPFQQASGYGQHGYSTGYDDLTQGTAAGDYSKGGYAGSSQAPNKSAGSGPGKGVSVSSSTTGLPDMTGSVYNKTQTFDKQGFHAGTPPPFSLPSVLGSTGPLASGAAPGYAPPPFLHILPAHQQPHSQLLHHHLPQDAQSGSGQRSQPSSLQPKSQASKPAYGNSPYWTN
B2: the binding entry in assay [3] is “binds”.

B3: CTD phosphatase subunit 1 (enzyme, UniProt Q9Y5B0 1-961)
chain: MEVPAAGRVPAEGAPTAAVAEVRCPGPAPLRLLEWRVAAGAAVRIGSVLAVFEAAASAQSSGASQSRVASGGCVRPARPERRLRSERAGVVRELCAQPGQVVAPGAVLVRLEGCSHPVVMKGLCAECGQDLTQLQSKNGKQQVPLSTATVSMVHSVPELMVSSEQAEQLGREDQQRLHRNRKLVLMVDLDQTLIHTTEQHCQQMSNKGIFHFQLGRGEPMLHTRLRPHCKDFLEKIAKLYELHVFTFGSRLYAHTIAGFLDPEKKLFSHRILSRDECIDPFSKTGNLRNLFPCGDSMVCIIDDREDVWKFAPNLITVKKYVYFQGTGDMNAPPGSRESQTRKKVNHSRGTEVSEPSPPVRDPEGVTQAPGVEPSNGLEKPARELNGSEAATPRDSPRPGKPDERDIWPPAQAPTSSQELAGAPEPQGSCAQGGRVAPGQRPAQGATGTDLDFDLSSDSESSSESEGTKSSSSASDGESEGKRGRQKPKAAPEGAGALAQGSSLEPGRPAAPSLPGEAEPGAHAPDKEPELGGQEEGERDGLCGLGNGCADRKEAETESQNSELSGVTAGESLDQSMEEEEEEDTDEDDHLIYLEEILVRVHTDYYAKYDRYLNKEIEEAPDIRKIVPELKSKVLADVAIIFSGLHPTNFPIEKTREHYHATALGAKILTRLVLSPDAPDRATHLIAARAGTEKVLQAQECGHLHVVNPDWLWSCLERWDKVEEQLFPLRDDHTKAQRENSPAAFPDREGVPPTALFHPMPVLPKAQPGPEVRIYDSNTGKLIRTGARGPPAPSSSLPIRQEPSSFRAVPPPQPQMFGEELPDAQDGEQPGPSRRKRQPSMSETMPLYTLCKEDLESMDKEVDDILGEGSDDSDSEKRRPEEQEEEPQPRKPGTRRERTLGAPASSERSAAGGRGPRGHKRKLNEEDAASESSRESSNEDEGSSSEADEMAKALEAELNDLM
Consider B3, for which the binding result in assay [4] is recorded as “binds”.

B4: Septin7 (endogenous) (protein, UniProt Q16181 1-437)
chain: MSVSARSAAAEERSVNSSTMVAQQKNLEGYVGFANLPNQVYRKSVKRGFEFTLMVVGESGLGKSTLINSLFLTDLYSPEYPGPSHRIKKTVQVEQSKVLIKEGGVQLLLTIVDTPGFGDAVDNSNCWQPVIDYIDSKFEDYLNAESRVNRRQMPDNRVQCCLYFIAPSGHGLKPLDIEFMKRLHEKVNIIPLIAKADTLTPEECQQFKKQIMKEIQEHKIKIYEFPETDDEEENKLVKKIKDRLPLAVVGSNTIIEVNGKRVRGRQYPWGVAEVENGEHCDFTILRNMLIRTHMQDLKDVTNNVHYENYRSRKLAAVTYNGVDNNKNKGQLTKSPLAQMEEERREHVAKMKKMEMEMEQVFEMKVKEKVQKLKDSEAELQRRHEQMKKNLEAQHKELEEKRRQFEDEKANWEAQQRILEQQNSSRTLEKNKKKGKIF
Take B4: the binding result in assay [4] is “binds”.

Values taken from publication PMC12464768.
